Source: PubChem BioAssay AID330 (DTP/NCI, 2004)
The list is a part of this screen's results and no random one: it is rich in T/C values a quarter to a half above the control, in often repeated tests (any T/C) and in doses without a T/C. Other doses and runs of a compound stand elsewhere. T/C gives the treated animals as a percentage of the vehicle group. Some doses have a count of surviving animals in place of a T/C: the source holds a T/C of zero for them, seemingly a mark for toxic or unscored doses. Some doses without a T/C left all or most animals alive at the check, yet need not have been tolerated: the source hardly ever lists a survival T/C far under the control, and the zero likely stands for such cases as well. Counts of survivors are from the toxicity check (mostly the fifth day) where no day follows; animals may have died later. Schedules are NCI's codes, taken here to give the interval after Q, in days (D) or hours (H), and the number of doses after X. Some entries were tested several times; the values are given in rising order. For survival time, the PubChem record calls one and a half times the control and up active, and a quarter to a half above the control has no call in these data; cut-offs in other NCI protocols can differ. Some T/C values are followed by the survivors on the day toxicity was checked, most often the fifth; without a count, all were alive then.

System: P388 leukemia ip, CD2F1 mice, survival T/C
Assay: NCI In Vivo Anticancer Drug Screen. Data for tumor model P388 Leukemia (intraperitoneal) in CD2F1 (CDF1) mice
Conditions: T/C endpoint: median survival time, higher T/C = longer survival
[1] = dose: 100.0 mg/kg/injection, schedule: Q04DX003 (ip), vehicle: saline with Tween-80
[2] = dose: 200.0 mg/kg/injection, schedule: Q04DX003 (ip), vehicle: saline with Tween-80
[3] = dose: 400.0 mg/kg/injection, schedule: Q04DX003 (ip), vehicle: saline with Tween-80
[4] = dose: 100.0 mg/kg/injection, schedule: Q01DX009 (ip), vehicle: saline with Tween-80
[5] = dose: 100.0 mg/kg/injection, schedule: Q04DX003 (ip), vehicle: saline
[6] = dose: 200.0 mg/kg/injection, schedule: Q01DX009 (ip), vehicle: saline
[7] = dose: 200.0 mg/kg/injection, schedule: Q01DX009 (ip), vehicle: other
[8] = dose: 120.0 mg/kg/injection, schedule: Q01DX005 (ip), vehicle: saline with Tween-80
[9] = dose: 240.0 mg/kg/injection, schedule: Q01DX005 (ip), vehicle: saline with Tween-80

Cc1cc(C)c(C(Cl)(Cl)Cl)c(C)c1Cl
T/C (dose: 25.0 mg/kg/injection, schedule: Q01DX009 (ip), vehicle: saline sonified): 131 % of control | T/C (dose: 25.0 mg/kg/injection, schedule: Q04DX003 (ip), vehicle: saline with Tween-80): 127 % of control | T/C (dose: 50.0 mg/kg/injection, schedule: Q01DX009 (ip), vehicle: saline sonified): 136 % of control | survivor count [1]: 1 of 6 | survivor count [2]: 1 of 6 | survivor count [3]: 0 of 6

NNC(=O)OC12CC3CC(CC(C3)C1)C2
survivor count [4]: 5 of 6

O=C(/C=N/O)Nc1ccccc1
T/C (dose: 50.0 mg/kg/injection, schedule: Q01DX009 (ip), vehicle: Klucel (hydroxypropylcellulose) (HPC)): 141 % of control | survivor count (dose: 200.0 mg/kg/injection, schedule: Q01DX009 (ip), vehicle: Klucel (hydroxypropylcellulose) (HPC)): 2 of 6

O=C1c2cccc3c([N+](=O)[O-])ccc(c23)C(=O)N1CCCN1CCOCC1
survivor count (dose: 200.0 mg/kg/injection, schedule: Q01DX005 (ip), vehicle: saline with Tween-80): 4 of 6

Cc1c(C(=O)O)nc(-c2ccc3c(n2)C(=O)C(N)=CC3=O)c2[nH]c3ccccc3c12
survivor count (dose: 1.6 mg/kg/injection, schedule: Q01DX009 (ip), vehicle: distilled water + Tween-80 + alcohol): 6 of 6 | survivor count (dose: 3.2 mg/kg/injection, schedule: Q01DX009 (ip), vehicle: distilled water + Tween-80 + alcohol): 6 of 6

CN(C)CCN1C(=O)Cc2ccccc2C1=O
survivor count (dose: 100.0 mg/kg/injection, schedule: Q01DX001 (ip), vehicle: saline): 0 of 6 | survivor count (dose: 200.0 mg/kg/injection, schedule: Q01DX001 (ip), vehicle: saline): 0 of 6 | survivor count (dose: 400.0 mg/kg/injection, schedule: Q01DX001 (ip), vehicle: saline): 0 of 6

Clc1[nH]nc2ccccc12
survivor count [1]: 6 of 6 | survivor count [2]: 6 of 6 | survivor count [3]: 3 of 6

[CH3][Sn]([CH3])([Cl])[O][Sn]([CH3])([CH3])[Cl]
T/C (dose: 12.5 mg/kg/injection, schedule: Q01DX009 (ip), vehicle: saline): 125 and 141 % of control [5 of 6 alive] | survivor count (dose: 50.0 mg/kg/injection, schedule: Q01DX009 (ip), vehicle: saline): 0 of 6 | survivor count (dose: 100.0 mg/kg/injection, schedule: Q01DX009 (ip), vehicle: saline): 0 of 6 | survivor count [5]: 0 of 6 | survivor count [6]: 0 of 6

CCc1ncnc2cc(OCC3CO3)c(OC)cc12 (configuration not stated)
T/C (dose: 12.5 mg/kg/injection, schedule: Q01DX005 (ip), vehicle: saline): 130, 132, 133 % of control | T/C (dose: 25.0 mg/kg/injection, schedule: Q01DX005 (ip), vehicle: saline): 138 % of control | survivor count (dose: 100.0 mg/kg/injection, schedule: Q01DX005 (ip), vehicle: saline): 5 of 6 and 6 of 6 | survivor count (dose: 200.0 mg/kg/injection, schedule: Q01DX005 (ip), vehicle: saline): 0 of 6 and 1 of 6

CC(=O)/C(=C\c1ccc([N+](=O)[O-])o1)C(=O)CCN(C)C
T/C (dose: 30.0 mg/kg/injection, schedule: Q01DX005 (ip), vehicle: Klucel (hydroxypropylcellulose) (HPC), evaluated on day 20): 125 % of control | T/C (dose: 30.0 mg/kg/injection, schedule: Q01DX005 (ip), vehicle: Klucel (hydroxypropylcellulose) (HPC), evaluated on day 21): 125 % of control | survivor count (dose: 60.0 mg/kg/injection, schedule: Q01DX005 (ip), vehicle: Klucel (hydroxypropylcellulose) (HPC)): 0 of 6 and 3 of 6 | survivor count (dose: 120.0 mg/kg/injection, schedule: Q01DX005 (ip), vehicle: Klucel (hydroxypropylcellulose) (HPC)): 0 of 6 | survivor count (dose: 240.0 mg/kg/injection, schedule: Q01DX005 (ip), vehicle: Klucel (hydroxypropylcellulose) (HPC)): 0 of 6

CC(=O)N(CCCN1C(=O)c2ccccc2C1=O)c1ccc2c(c1)c(-c1ccccc1)nc1cc([N+](=O)[O-])ccc12
survivor count (dose: 12.5 mg/kg/injection, schedule: Q01DX009 (ip), vehicle: other): 6 of 6 | survivor count (dose: 25.0 mg/kg/injection, schedule: Q01DX009 (ip), vehicle: other): 5 of 6 and 6 of 6 | survivor count [7]: 5 of 6

O=C(/C=C/c1ccc(OCc2ccccc2)cc1)c1ccc(C(F)(F)F)cc1
survivor count [4]: 6 of 6

O=C1C2=C(C(=O)c3ncccc31)C1C=CC2CC1 (configuration not stated)
survivor count (dose: 200.0 mg/kg/injection, schedule: Q01DX005 (ip), vehicle: DMSO): 3 of 4 | survivor count (dose: 200.0 mg/kg/injection, schedule: Q01DX005 (ip), vehicle: Klucel + Tween-80): 2 of 6 | survivor count (dose: 400.0 mg/kg/injection, schedule: Q01DX005 (ip), vehicle: Klucel + Tween-80): 0 of 5

C/C(=N\Nc1ccc([N+](=O)[O-])cc1[N+](=O)[O-])c1ccc[nH]1
survivor count (dose: 60.0 mg/kg/injection, schedule: Q01DX005 (ip), vehicle: saline with Tween-80): 6 of 6 | survivor count [8]: 6 of 6 | survivor count [9]: 6 of 6

CNc1ncn(-c2c(C)cccc2C)c(=O)n1
survivor count [8]: 4 of 6 | T/C [9]: 128 % of control | T/C (dose: 480.0 mg/kg/injection, schedule: Q01DX005 (ip), vehicle: saline with Tween-80): 133 % of control [5 of 6 alive]

CCOC(=O)c1cc2c(OC)c(OC)ccc2cc1N
survivor count [7]: 4 of 6 | survivor count (dose: 400.0 mg/kg/injection, schedule: Q01DX009 (ip), vehicle: other): 1 of 6

CC1=C(CCCCCCCCCCCCCCC(C)O)C(=O)OC1=O (configuration not stated)
survivor count (dose: 25.0 mg/kg/injection, schedule: Q01DX005 (ip), vehicle: Klucel (hydroxypropylcellulose) (HPC)): 5 of 5

COC1=C(OC)C(=O)C(OC)=C(OC)C1=O
survivor count [4]: 3 of 6 | survivor count (dose: 200.0 mg/kg/injection, schedule: Q01DX009 (ip), vehicle: saline with Tween-80): 0 of 6

CC1CCC2(CC1)CCN(CCCN(C)C)CC2
survivor count [6]: 3 of 6

CC(/C=N/Nc1ccccc1)=N\N=c1/scc(-c2ccc(Br)cc2)n1-c1ccc(Cl)cc1
survivor count (dose: 100.0 mg/kg/injection, schedule: Q01DX001 (ip), vehicle: saline with Tween-80): 6 of 6 | survivor count (dose: 200.0 mg/kg/injection, schedule: Q01DX001 (ip), vehicle: saline with Tween-80): 6 of 6 | survivor count (dose: 400.0 mg/kg/injection, schedule: Q01DX001 (ip), vehicle: saline with Tween-80): 6 of 6

CCCCCCCCCCCCCCCCCC(=O)NC1c2ccccc2Oc2ccccc21
survivor count (dose: 50.0 mg/kg/injection, schedule: Q01DX005 (ip), vehicle: saline with Tween-80): 5 of 5 | survivor count (dose: 100.0 mg/kg/injection, schedule: Q01DX005 (ip), vehicle: saline with Tween-80): 5 of 5

O=C1OI(Cl)c2ccccc21
survivor count [9]: 0 of 6

CCOC(=O)C(Cc1ccc(N(CCCl)CCCl)cc1)NC(=O)CNC(C)=O (configuration not stated)
T/C (dose: 2.0 mg/kg/injection, schedule: Q04DX003 (ip), vehicle: saline with Tween-80): 127 % of control | T/C (dose: 3.13 mg/kg/injection, schedule: Q04DX003 (ip), vehicle: saline): 130 % of control | T/C (dose: 6.25 mg/kg/injection, schedule: Q04DX003 (ip), vehicle: saline): 140 % of control | survivor count (dose: 50.0 mg/kg/injection, schedule: Q01DX009 (ip), vehicle: saline with Tween-80): 6 of 6 | survivor count (dose: 75.0 mg/kg/injection, schedule: Q04DX003 (ip), vehicle: saline with Tween-80): 6 of 6 | survivor count [1]: 6 of 6 | survivor count [5]: 6 of 6 | survivor count [2]: 2 of 6 | survivor count (dose: 200.0 mg/kg/injection, schedule: Q04DX003 (ip), vehicle: saline): 3 of 6 | survivor count [3]: 4 of 6
